Results are given in words; binding and its absence hold for the method and conditions named. Some binding calls cover weakened binding; strength is not graded here. For some assays here: Sequences can lack the tags named with a protein.
Assays:
[1] = target: T1, IFT139 (TTC21B/THM1) with N-terminal mCherry tag (human) (UniProt Q7Z4L5); assay: cryo-EM structure; IFT-A complex co-expressed in HEK293F and co-purified; composite map from the IFT-A and IFT-A (-IFT139) datasets; 20 mM Tris-HCl pH 8.0, 200 mM NaCl, 2 mM DTT, 2 mM FFC-8 added; both purified
T1 sequence: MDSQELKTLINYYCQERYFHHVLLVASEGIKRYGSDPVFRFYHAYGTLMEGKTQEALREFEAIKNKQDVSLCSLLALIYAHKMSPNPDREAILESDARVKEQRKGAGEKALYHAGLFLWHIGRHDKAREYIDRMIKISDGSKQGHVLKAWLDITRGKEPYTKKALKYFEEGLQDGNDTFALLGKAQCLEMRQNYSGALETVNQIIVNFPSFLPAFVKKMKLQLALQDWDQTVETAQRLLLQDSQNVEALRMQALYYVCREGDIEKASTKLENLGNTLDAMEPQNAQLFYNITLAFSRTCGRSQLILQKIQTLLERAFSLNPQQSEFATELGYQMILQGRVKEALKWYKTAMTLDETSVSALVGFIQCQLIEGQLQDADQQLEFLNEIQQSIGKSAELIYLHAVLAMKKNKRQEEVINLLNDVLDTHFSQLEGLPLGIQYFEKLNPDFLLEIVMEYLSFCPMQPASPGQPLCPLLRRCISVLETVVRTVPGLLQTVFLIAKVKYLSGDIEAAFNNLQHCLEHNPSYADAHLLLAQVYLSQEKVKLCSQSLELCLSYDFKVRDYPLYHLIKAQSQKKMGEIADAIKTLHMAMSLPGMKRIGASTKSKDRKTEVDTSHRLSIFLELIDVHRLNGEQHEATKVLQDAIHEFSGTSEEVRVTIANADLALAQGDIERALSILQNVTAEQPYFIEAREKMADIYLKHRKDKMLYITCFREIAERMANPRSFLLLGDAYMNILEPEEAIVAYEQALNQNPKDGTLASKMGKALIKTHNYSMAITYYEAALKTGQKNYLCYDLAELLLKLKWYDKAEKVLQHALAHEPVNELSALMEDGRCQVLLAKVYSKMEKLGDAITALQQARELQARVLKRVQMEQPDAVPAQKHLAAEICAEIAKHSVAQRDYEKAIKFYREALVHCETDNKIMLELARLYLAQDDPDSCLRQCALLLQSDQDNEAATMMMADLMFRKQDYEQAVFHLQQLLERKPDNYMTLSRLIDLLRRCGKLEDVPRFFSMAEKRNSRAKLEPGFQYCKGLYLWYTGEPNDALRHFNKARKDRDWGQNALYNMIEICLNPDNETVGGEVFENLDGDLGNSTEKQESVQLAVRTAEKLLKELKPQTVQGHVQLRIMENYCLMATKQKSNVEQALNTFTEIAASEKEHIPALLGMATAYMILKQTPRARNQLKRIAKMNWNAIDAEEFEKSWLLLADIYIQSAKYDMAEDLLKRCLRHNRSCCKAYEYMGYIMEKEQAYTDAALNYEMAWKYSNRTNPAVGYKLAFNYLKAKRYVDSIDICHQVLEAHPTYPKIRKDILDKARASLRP

[2] = target: T2, IFT144 (WDR19) (human) (UniProt Q8NEZ3); assay: as above
T2 sequence: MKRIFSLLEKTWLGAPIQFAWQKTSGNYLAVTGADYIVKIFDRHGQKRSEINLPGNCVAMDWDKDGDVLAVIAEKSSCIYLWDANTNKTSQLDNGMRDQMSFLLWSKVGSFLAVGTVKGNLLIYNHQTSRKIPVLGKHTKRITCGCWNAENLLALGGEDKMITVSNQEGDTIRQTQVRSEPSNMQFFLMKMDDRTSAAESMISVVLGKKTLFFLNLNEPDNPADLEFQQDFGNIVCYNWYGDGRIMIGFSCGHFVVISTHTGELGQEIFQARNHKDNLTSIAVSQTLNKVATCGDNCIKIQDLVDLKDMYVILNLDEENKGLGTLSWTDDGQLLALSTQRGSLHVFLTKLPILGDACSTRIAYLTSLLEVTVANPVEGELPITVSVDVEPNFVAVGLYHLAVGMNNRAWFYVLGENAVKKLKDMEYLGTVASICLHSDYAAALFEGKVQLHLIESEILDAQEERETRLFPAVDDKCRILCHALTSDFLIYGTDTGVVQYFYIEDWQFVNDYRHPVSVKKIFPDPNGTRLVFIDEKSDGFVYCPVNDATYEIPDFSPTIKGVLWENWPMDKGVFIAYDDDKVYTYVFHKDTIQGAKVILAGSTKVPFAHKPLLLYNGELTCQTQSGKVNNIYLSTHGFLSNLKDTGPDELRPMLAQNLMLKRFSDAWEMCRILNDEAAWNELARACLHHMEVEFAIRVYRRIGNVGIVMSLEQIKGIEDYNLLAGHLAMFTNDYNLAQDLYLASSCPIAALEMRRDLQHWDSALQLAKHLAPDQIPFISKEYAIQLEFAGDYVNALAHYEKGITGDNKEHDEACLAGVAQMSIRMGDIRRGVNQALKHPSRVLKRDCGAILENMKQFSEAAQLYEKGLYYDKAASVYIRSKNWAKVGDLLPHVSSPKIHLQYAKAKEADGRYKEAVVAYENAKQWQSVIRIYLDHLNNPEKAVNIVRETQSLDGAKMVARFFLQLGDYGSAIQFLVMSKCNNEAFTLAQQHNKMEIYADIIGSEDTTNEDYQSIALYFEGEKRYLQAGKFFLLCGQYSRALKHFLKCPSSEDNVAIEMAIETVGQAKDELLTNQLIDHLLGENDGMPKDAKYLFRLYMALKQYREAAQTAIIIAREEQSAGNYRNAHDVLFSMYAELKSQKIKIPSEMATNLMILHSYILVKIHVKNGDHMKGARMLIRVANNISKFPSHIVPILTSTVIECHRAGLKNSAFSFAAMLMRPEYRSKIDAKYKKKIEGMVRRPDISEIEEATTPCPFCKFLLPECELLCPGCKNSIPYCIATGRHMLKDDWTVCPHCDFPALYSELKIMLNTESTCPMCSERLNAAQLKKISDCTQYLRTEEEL

binding [1]: binds
binding [2]: binds
B1: IFT121 (WDR35) (protein, UniProt Q9P2L0 1-1181)
chain: MFFYLSKKISIPNNVKLQCVSWNKEQGFIACGGEDGLLKVLKLETQTDDAKLRGLAAPSNLSMNQTLEGHSGSVQVVTWNEQYQKLTTSDENGLIIVWMLYKGSWIEEMINNRNKSVVRSMSWNADGQKICIVYEDGAVIVGSVDGNRIWGKDLKGIQLSHVTWSADSKVLLFGMANGEIHIYDNQGNFMIKMKLSCLVNVTGAISIAGIHWYHGTEGYVEPDCPCLAVCFDNGRCQIMRHENDQNPVLIDTGMYVVGIQWNHMGSVLAVAGFQKAAMQDKDVNIVQFYTPFGEHLGTLKVPGKEISALSWEGGGLKIALAVDSFIYFANIRPNYKWGYCSNTVVYAYTRPDRPEYCVVFWDTKNNEKYVKYVKGLISITTCGDFCILATKADENHPQEENEMETFGATFVLVLCNSIGTPLDPKYIDIVPLFVAMTKTHVIAASKEAFYTWQYRVAKKLTALEINQITRSRKEGRERIYHVDDTPSGSMDGVLDYSKTIQGTRDPICAITASDKILIVGRESGTIQRYSLPNVGLIQKYSLNCRAYQLSLNCNSSRLAIIDISGVLTFFDLDARVTDSTGQQVVGELLKLERRDVWDMKWAKDNPDLFAMMEKTRMYVFRNLDPEEPIQTSGYICNFEDLEIKSVLLDEILKDPEHPNKDYLINFEIRSLRDSRALIEKVGIKDASQFIEDNPHPRLWRLLAEAALQKLDLYTAEQAFVRCKDYQGIKFVKRLGKLLSESMKQAEVVGYFGRFEEAERTYLEMDRRDLAIGLRLKLGDWFRVLQLLKTGSGDADDSLLEQANNAIGDYFADRQKWLNAVQYYVQGRNQERLAECYYMLEDYEGLENLAISLPENHKLLPEIAQMFVRVGMCEQAVTAFLKCSQPKAAVDTCVHLNQWNKAVELAKNHSMKEIGSLLARYASHLLEKNKTLDAIELYRKANYFFDAAKLMFKIADEEAKKGSKPLRVKKLYVLSALLIEQYHEQMKNAQRGKVKGKSSEATSALAGLLEEEVLSTTDRFTDNAWRGAEAYHFFILAQRQLYEGCVDTALKTALHLKDYEDIIPPVEIYSLLALCACASRAFGTCSKAFIKLKSLETLSSEQKQQYEDLALEIFTKHTSKDNRKPELDSLMEGGEGKLPTCVATGSPITEYQFWMCSVCKHGVLAQEISHYSFCPLCHSPVG

— publication PMC10066299
